# The supplement of paper PMC8728848
# This is one part of the list.
# B1: Gs78B-bfa-542-29-542 (Bacteroides fragilis) (protein)
# chain: SEDINRNPLLPTKEDEKMDGVIYGAYLPNLEKSVIPIGTASESTEPVNRYQIGVNLAGDAWAGYMSPRDNKFNGSKNFTNYFMYENWVNYVYSFMVTDVYSPWMQIKRISQDEGTRNDEIYALAQIIKIAALHRTTDMFGPIPYSQVGKGSFKVAYDSQESVYRSFLKELEEAVQTLDDYSNKSKEVLPAFDIVYNGDVNKWMRFANSLMLRLAIRVRFADAGLAKEYAEKAVKHPAGLINSKELAAQMGKGAGLQMKNPLKVINEEYNDTRMGATIYSYLAGYNDARAAVYFVKNNGFKAVRCGIAKSGDAYNGFTRPNVHEDDPLYWMKASEVCFLKAEGALAGFDMGGSAGDFYNAGIRMSFSENGLDNSSAETYLKDSTRKPANYTDTSNGELSANAPSSITIRWENGATEEEKLERIITQKYLAIFPNGQEAWTEWRRTGYPRQIVVAENKTNSAVLIGNGYDLGGVRRLPYPRTEYEQNGENLHNAISQYLGGVDNAATKVWWDKKSK
# Columns and labels:
# [1] = molecular target: Neu5Gc(a2-8)Neu5Gc(a2-6)Gal(b1-4)GlcNAc; experiment: glycan array binding signal (z-score within array); higher = stronger binding; details: glycan notation: IUPAC condensed, linker removed
# In short: (§1)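 Glycan array data were curated from 3228 arrays in the Consortium for Functional Glycomics database and kept only where the protein sequence was available. Glycan names were converted to IUPAC-condensed notation, and columns mapping to the same glycan were averaged. The binding signal is a within-array Z-score, averaged across arrays of the same protein sequence at different concentrations or buffers and across linkers. Negative Z-scores can be read as non-binding.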
# [2] = molecular target: Neu5Gc(b2-6)Gal(b1-4)GlcNAc; experiment: as above; details: glycan notation: IUPAC condensed, linker removed
# In short: as §1
binder,measurement,setting,value
B1,glycan array binding signal (z-score),[1],-0.438
same,glycan array binding signal (z-score),[2],0.491
